Measured values reported in the supplement of paper PMC10849652.
Some of the results follow.

Protein sequences, listed by entry. Tags and fused reporters are not part of them. Lines headed by an entry give the natural chain unless they say otherwise; changes in a name come on top.
UniProt Q99574: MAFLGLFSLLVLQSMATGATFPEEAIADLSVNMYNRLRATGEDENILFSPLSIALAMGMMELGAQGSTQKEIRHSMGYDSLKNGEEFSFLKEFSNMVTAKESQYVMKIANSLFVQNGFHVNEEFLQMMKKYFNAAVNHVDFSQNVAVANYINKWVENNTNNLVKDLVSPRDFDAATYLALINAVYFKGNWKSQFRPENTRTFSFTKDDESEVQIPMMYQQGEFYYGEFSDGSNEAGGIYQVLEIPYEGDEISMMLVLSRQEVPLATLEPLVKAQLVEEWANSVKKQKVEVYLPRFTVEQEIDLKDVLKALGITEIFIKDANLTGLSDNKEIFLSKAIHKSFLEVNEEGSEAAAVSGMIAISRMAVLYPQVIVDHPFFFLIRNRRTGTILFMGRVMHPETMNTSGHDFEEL
UniProt P53985: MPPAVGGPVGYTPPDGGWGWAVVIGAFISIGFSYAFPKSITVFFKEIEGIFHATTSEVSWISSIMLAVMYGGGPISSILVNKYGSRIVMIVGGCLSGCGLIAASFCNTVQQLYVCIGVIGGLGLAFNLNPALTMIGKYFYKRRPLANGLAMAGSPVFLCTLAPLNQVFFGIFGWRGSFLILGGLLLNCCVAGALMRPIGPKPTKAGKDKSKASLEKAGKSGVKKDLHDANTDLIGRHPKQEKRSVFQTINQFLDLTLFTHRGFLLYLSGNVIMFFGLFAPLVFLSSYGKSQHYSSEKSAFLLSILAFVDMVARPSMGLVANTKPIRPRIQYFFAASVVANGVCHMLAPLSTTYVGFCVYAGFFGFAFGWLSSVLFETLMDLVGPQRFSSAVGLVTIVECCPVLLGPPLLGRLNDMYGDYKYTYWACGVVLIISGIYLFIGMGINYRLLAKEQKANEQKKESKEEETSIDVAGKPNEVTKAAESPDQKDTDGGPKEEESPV
UniProt Q8WVK7: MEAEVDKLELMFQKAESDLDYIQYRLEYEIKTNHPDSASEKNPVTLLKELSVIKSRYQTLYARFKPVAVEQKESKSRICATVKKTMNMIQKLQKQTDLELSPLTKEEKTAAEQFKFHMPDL
UniProt O75368: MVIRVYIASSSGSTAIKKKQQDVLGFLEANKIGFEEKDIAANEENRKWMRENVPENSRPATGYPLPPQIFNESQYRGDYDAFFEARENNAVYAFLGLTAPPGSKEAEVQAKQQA
UniProt O95470: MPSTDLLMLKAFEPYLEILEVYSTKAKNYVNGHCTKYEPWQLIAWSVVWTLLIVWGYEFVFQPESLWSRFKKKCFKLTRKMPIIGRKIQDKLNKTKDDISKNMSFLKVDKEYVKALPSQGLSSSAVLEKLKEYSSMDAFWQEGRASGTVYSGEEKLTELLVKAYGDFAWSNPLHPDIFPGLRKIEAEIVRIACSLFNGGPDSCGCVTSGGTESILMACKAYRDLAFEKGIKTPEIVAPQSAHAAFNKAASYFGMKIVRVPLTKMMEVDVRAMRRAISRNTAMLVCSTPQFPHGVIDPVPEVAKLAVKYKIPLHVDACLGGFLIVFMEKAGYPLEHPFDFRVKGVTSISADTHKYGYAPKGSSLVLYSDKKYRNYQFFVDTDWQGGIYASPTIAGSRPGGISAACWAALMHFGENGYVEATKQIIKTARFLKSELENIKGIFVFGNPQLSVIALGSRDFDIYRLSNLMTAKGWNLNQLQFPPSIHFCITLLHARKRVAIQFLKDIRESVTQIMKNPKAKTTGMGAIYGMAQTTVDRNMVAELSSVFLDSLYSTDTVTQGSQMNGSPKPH
UniProt Q9UQ13: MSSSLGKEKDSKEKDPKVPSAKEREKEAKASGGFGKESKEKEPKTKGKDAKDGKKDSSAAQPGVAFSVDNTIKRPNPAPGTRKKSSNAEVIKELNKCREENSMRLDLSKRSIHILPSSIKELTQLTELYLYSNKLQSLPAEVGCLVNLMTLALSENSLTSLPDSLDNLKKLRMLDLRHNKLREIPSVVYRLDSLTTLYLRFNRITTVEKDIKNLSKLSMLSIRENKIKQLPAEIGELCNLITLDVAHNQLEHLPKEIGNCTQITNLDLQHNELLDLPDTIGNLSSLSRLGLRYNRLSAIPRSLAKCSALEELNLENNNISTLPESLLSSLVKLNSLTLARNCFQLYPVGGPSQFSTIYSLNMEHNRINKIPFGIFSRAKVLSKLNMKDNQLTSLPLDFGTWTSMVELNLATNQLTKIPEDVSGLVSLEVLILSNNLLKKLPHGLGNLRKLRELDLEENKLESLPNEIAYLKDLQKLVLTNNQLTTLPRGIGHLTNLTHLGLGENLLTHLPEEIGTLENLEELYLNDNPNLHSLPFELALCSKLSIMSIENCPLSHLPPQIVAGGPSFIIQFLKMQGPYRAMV
UniProt P58004: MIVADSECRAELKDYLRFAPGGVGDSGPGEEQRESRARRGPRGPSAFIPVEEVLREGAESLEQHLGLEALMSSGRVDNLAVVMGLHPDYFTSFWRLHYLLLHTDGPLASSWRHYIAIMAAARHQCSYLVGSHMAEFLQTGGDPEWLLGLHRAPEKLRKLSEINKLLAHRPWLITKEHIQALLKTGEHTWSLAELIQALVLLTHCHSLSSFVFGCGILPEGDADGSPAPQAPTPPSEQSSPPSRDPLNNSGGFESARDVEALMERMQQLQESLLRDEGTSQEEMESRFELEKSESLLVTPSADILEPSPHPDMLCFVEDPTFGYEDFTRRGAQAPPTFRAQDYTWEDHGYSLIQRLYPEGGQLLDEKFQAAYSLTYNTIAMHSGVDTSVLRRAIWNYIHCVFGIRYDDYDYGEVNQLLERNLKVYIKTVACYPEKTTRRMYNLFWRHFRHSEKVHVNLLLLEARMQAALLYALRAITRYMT
UniProt Q9H299: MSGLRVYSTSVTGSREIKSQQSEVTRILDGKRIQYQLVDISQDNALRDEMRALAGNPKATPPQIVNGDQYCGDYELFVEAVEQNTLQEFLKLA
UniProt Q9Y3B4: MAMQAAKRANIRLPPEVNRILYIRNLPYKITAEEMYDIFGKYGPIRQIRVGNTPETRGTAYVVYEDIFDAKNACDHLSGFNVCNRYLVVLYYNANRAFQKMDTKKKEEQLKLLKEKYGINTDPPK
UniProt P36955: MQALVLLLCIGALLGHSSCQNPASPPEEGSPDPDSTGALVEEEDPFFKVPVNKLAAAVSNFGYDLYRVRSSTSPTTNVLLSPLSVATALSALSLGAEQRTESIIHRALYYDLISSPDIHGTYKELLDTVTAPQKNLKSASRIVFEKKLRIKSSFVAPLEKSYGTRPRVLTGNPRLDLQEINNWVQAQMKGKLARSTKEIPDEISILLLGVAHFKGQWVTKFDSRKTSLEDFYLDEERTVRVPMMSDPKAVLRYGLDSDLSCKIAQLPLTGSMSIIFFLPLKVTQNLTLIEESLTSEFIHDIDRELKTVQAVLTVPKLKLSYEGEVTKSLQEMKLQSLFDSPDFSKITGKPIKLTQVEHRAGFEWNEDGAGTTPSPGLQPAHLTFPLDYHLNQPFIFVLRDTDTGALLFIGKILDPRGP
UniProt Q96FS4: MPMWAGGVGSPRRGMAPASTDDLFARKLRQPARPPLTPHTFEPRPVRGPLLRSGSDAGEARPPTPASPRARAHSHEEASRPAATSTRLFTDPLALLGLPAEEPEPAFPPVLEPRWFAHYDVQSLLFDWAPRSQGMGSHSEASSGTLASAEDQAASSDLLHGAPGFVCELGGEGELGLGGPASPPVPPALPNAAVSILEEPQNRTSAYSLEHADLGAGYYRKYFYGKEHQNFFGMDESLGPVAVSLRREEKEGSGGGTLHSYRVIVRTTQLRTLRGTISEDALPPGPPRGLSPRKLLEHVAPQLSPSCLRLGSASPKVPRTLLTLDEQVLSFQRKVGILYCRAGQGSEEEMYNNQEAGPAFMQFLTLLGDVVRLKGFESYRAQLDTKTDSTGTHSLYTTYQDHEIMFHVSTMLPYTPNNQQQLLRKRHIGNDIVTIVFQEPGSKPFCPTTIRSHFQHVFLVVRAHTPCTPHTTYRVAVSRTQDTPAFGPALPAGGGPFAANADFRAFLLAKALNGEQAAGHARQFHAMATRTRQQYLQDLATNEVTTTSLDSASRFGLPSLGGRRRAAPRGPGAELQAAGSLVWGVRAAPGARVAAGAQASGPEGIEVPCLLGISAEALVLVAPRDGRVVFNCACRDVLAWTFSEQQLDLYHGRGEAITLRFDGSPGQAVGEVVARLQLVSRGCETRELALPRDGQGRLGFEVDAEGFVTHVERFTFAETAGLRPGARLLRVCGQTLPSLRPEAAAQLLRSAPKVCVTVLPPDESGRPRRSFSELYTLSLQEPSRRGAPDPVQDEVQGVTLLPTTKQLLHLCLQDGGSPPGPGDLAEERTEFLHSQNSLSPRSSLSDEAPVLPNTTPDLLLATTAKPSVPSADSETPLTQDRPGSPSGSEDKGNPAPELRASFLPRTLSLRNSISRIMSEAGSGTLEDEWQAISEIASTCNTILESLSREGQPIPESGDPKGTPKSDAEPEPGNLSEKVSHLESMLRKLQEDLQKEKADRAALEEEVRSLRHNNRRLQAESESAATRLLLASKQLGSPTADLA
UniProt Q8NBJ9: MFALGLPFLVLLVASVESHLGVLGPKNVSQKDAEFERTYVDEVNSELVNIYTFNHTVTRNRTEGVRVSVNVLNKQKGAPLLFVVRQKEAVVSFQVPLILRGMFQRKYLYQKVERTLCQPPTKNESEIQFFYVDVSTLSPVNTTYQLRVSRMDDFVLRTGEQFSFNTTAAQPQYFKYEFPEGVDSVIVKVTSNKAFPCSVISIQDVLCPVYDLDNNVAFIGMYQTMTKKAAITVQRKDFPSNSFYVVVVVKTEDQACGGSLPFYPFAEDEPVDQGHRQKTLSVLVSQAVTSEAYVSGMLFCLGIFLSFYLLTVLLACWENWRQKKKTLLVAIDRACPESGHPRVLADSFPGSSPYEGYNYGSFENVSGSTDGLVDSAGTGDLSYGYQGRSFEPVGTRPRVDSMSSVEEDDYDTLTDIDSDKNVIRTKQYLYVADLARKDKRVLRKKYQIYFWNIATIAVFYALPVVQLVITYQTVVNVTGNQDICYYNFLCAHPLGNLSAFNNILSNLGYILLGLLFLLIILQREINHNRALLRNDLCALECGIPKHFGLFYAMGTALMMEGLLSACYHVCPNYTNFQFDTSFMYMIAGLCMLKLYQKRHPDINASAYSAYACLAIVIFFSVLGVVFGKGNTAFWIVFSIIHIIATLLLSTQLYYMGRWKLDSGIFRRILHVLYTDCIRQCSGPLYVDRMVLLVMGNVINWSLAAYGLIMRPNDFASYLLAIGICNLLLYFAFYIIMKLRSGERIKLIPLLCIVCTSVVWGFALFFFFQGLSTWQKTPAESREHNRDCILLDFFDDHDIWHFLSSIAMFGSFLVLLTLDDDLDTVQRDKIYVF
UniProt Q13435: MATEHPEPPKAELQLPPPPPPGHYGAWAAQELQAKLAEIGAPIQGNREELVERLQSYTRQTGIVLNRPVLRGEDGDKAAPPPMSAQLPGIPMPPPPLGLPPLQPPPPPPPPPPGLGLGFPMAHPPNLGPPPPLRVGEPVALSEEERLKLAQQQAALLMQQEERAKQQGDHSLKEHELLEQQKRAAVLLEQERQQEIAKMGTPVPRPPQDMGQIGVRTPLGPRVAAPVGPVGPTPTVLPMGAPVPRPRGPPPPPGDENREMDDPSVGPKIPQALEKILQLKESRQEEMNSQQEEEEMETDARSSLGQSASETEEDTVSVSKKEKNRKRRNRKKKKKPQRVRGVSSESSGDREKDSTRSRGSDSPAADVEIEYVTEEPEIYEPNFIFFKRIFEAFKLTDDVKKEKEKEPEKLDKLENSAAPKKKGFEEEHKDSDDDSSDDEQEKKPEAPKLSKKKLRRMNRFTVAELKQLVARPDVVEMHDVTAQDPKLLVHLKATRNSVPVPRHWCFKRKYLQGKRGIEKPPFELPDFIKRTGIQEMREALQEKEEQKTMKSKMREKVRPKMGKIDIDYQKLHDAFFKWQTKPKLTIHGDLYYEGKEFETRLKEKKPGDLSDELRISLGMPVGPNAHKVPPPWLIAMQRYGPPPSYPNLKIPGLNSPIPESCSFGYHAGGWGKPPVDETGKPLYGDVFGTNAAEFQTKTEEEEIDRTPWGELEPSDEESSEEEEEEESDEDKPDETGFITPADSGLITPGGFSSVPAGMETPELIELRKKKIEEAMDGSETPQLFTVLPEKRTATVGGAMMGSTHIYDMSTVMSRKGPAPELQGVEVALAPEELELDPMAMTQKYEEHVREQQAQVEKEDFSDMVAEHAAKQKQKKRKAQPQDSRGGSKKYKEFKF
UniProt Q14493, whole entry, looked up: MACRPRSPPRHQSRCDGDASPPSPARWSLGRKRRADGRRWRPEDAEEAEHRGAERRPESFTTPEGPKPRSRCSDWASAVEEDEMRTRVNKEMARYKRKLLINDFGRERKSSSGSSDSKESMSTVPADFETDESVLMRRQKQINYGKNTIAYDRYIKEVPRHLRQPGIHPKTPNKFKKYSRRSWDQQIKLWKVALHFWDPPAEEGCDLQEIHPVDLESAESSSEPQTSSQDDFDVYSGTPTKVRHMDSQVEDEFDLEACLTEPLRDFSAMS

Legend:
Experiment in all cases: log2 fold change, soluble protein after heating vs DMSO (PISA); higher = thermal stabilisation; K562 lysate, 10 uM; active = over 0.2 and 3.5 SD of the protein, either way, in both replicates (recomputed)
[1] = compound: CCCS(=O)(=O)Nc1ccc(F)c(C(=O)c2c[nH]c3ncc(-c4ccc(Cl)cc4)cc23)c1F [vemurafenib]
In short: (§1)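 Log-two fold change in thermal stability relative to solvent controls is reported from duplicates. For each sample, crude K562 extract from dounce-homogenised pellets in PBS pH 7.4 with 1 mM MgCl2, at 1 mg/mL protein, was treated with 10 μM compound for 30 min. Aliquots heated for 3 min across 48°C-58°C were pooled, brought to 0.5% NP-40 at 4°C and cleared at 21,000xg for 90 min. The supernatant was quantified by TMTpro 16plex LC-MS/MS with channel sums equalised.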

[2] = compound: CCCS(=O)(=O)Nc1ccc(F)c(C(=O)c2c[nH]c3ncc(Cl)cc23)c1F
In short: as §1

[3] = compound: CCN(CCCOc1ccc2c(Nc3cc(CC(=O)Nc4cccc(F)c4)[nH]n3)ncnc2c1)CCOP(=O)(O)O [barasertib]
In short: as §1

[4] = compound: CC[C@@H]1C(=O)N(C)c2cnc(Nc3ccc(C(=O)NC4CCN(C)CC4)cc3OC)nc2N1C1CCCC1
In short: as §1

[5] = compound: CC[C@@H]1C(=O)N(C)c2cnc(Nc3ccc(C(=O)N[C@H]4CC[C@H](N5CCN(CC6CC6)CC5)CC4)cc3OC)nc2N1C(C)C [volasertib]
In short: as §1

[6] = compound: CCn1c(C(=O)N(C2CC2)C2CC2)cc2c3c(ncn3C)c(Nc3cc(C)n(C)n3)nc21
In short: as §1

[7] = compound: CCn1cc(-c2ccnc3[nH]c(-c4cccc(CN(C)C)c4)cc23)c(-c2ccc(NC(=O)N(C)C)cc2)n1
In short: as §1

[8] = compound: CN1CCC(CNc2ccc3ncc(-c4cccc(OC(F)(F)F)c4)n3n2)CC1
In short: as §1

[9] = compound: CN1CCN(CCOc2cc(OC3CCOCC3)c3c(Nc4c(Cl)ccc5c4OCO5)ncnc3c2)CC1 [saracatinib]
In short: as §1

[10] = compound: CN1CCN(c2nc(C3=C(c4c[nH]c5ccccc45)C(=O)NC3=O)c3ccccc3n2)CC1 [sotrastaurin]
In short: as §1

[11] = compound: CN1CC[C@H](c2c(O)cc(O)c3c(=O)cc(-c4ccccc4Cl)oc23)[C@H](O)C1 [alvocidib]
In short: as §1

[12] = compound: CN1CCc2c(c3ccccc3n2Cc2ccc(C(=O)NO)cc2)C1 [Tubastatin A]
In short: as §1

[13] = compound: CNC(=O)C1=CC=CC=C1NC2=NC(=NC=C2Cl)NC3=C(C=C(C=C3)N4CCOCC4)OC
In short: as §1

[14] = compound: CNC(=O)c1ccc(Nc2ncc(C(F)(F)F)c(NCc3nccnc3N(C)S(C)(=O)=O)n2)cc1 [defactinib]
In short: as §1

[15] = compound: CNc1nc(-c2ccc3c(N)n[nH]c3c2)cc(N2C[C@@H](C(=O)NC3CCCCC3)CC[C@H]2C)n1
In short: as §1

[16] = compound: COC(=O)N[C@@H](C)CNc1nccc(-c2cn(C(C)C)nc2-c2cc(Cl)cc(NS(C)(=O)=O)c2F)n1 [encorafenib]
In short: as §1

[17] = compound: COC(=O)[C@H](CCSC)NC(=O)C1=C(C=C(C=C1)NC[C@H](CS)N)C2=CC=CC=C2
In short: as §1

[18] = compound: COc1cc(Nc2ncc3c(n2)-c2ccc(Cl)cc2C(c2c(F)cccc2OC)=NC3)ccc1C(=O)O [alisertib]
In short: as §1

[19] = compound: COc1cc2nc(-c3cc(F)ccc3O)nc(N[C@@H]3CNC[C@H]3C(C)(C)O)c2cc1OC
In short: as §1

[20] = compound: COc1cc2ncnc(Nc3ccc(F)c(Cl)c3)c2cc1OCCCN1CCOCC1 [gefitinib]
In short: as §1

Measured: log2 fold change

SERPINI1 (UniProt Q99574)
inactive: [1] 0.027 | [2] 0.008 | [3] -0.006 | [4] 0.024 | [5] -0.001 | [6] 0.03 | [7] 0.001 | [8] 0.069 | [9] 0 | [10] 0.016 | [11] -0.031 | [12] 0.015 | [13] -0.001 | [14] 0.019 | [15] -0.042 | [16] 0.02 | [17] -0.074 | [18] -0.064 | [19] 0.013 | [20] 0.048

SFXN2 (UniProt Q96NB2)
inactive: [1] -0.011 | [2] 0 | [3] 0.03 | [4] 0.019 | [5] 0.027 | [6] 0.025 | [7] 0.139 | [8] -0.073 | [9] -0.04 | [10] 0.025 | [11] -0.037 | [12] 0.006 | [13] 0.027 | [14] 0.055 | [15] 0.006 | [16] -0.001 | [17] -0.004 | [18] 0.055 | [19] -0.028 | [20] 0.005

SLC16A1 (UniProt P53985)
inactive: [1] 0.026 | [2] -0.015 | [3] -0.051 | [4] 0.07 | [5] 0.043 | [6] -0.034 | [9] -0.003 | [10] 0.02 | [11] -0.133 | [12] -0.012 | [13] 0.042 | [14] -0.007 | [15] 0.024 | [16] -0.016 | [17] -0.059 | [18] 0.045 | [19] 0.018 | [20] 0.032
active: [7] -0.419 | [8] 0.256

SKA2 (UniProt Q8WVK7)
inactive: [1] 0 | [2] 0.014 | [3] 0.078 | [4] 0 | [5] -0.043 | [6] 0.02 | [7] -0.032 | [8] -0.015 | [9] 0.028 | [10] -0.097 | [11] 0.003 | [12] -0.119 | [13] -0.077 | [14] -0.014 | [15] -0.02 | [16] 0.032 | [17] -0.001 | [18] 0.036 | [19] -0.009 | [20] 0.006

SH3BGRL (UniProt O75368)
inactive: [1] -0.006 | [2] 0.001 | [3] 0.182 | [4] 0.055 | [5] 0.028 | [6] -0.007 | [7] 0.094 | [8] -0.045 | [9] -0.03 | [10] -0.024 | [11] 0.035 | [12] 0.071 | [13] 0.007 | [14] 0.065 | [15] 0.024 | [16] 0.044 | [17] -0.028 | [18] -0.009 | [19] -0.01 | [20] -0.001

SGPL1 (UniProt O95470)
inactive: [1] -0.096 | [2] 0.042 | [3] 0.021 | [4] -0.028 | [5] -0.032 | [6] -0.031 | [7] 0.046 | [8] 0.014 | [9] 0.067 | [10] -0.022 | [11] -0.012 | [12] 0.01 | [13] 0.009 | [14] 0.035 | [15] 0.09 | [16] 0.025 | [17] 0.062 | [18] -0.078 | [19] -0.155 | [20] -0.027

SHOC2 (UniProt Q9UQ13)
inactive: [1] 0.018 | [2] 0.022 | [3] 0.002 | [4] 0.053 | [5] -0.029 | [6] 0.022 | [7] -0.149 | [8] 0.063 | [9] -0.028 | [10] -0.024 | [11] -0.032 | [12] -0.012 | [13] -0.01 | [14] -0.019 | [15] 0.019 | [16] -0.014 | [17] 0.019 | [18] 0.076 | [19] 0.007 | [20] 0.032

SESN2 (UniProt P58004)
inactive: [1] -0.008 | [2] 0.025 | [3] 0.049 | [4] -0.103 | [5] -0.066 | [6] 0.019 | [7] 0.02 | [8] -0.105 | [9] -0.043 | [10] 0.047 | [11] 0.028 | [12] -0.093 | [13] -0.028 | [14] 0.039 | [15] 0.033 | [16] 0.038 | [17] -0.001 | [18] -0.026 | [19] -0.045 | [20] -0.034

SH3BGRL3 (UniProt Q9H299)
inactive: [1] 0.021 | [2] 0.016 | [3] 0.099 | [4] 0.011 | [5] 0.017 | [6] 0.025 | [7] -0.078 | [8] -0.032 | [9] 0.001 | [10] 0.016 | [11] 0.007 | [12] 0.022 | [13] 0.003 | [14] 0.04 | [15] 0.036 | [16] -0.048 | [17] 0.004 | [18] 0 | [19] -0.021 | [20] -0.061

SF3B6 (UniProt Q9Y3B4)
inactive: [1] -0.006 | [2] -0.003 | [3] -0.026 | [4] 0.027 | [5] 0.014 | [6] -0.003 | [7] 0.061 | [8] -0.013 | [9] 0.028 | [10] 0.018 | [11] 0.05 | [12] -0.037 | [13] 0.016 | [14] 0.017 | [15] 0.071 | [16] 0.014 | [17] -0.003 | [18] -0.011 | [19] -0.027 | [20] -0.172

SERPINF1 (UniProt P36955)
inactive: [1] -0.024 | [2] 0.084 | [3] -0.066 | [4] 0.047 | [5] 0.042 | [6] 0.001 | [7] 0.029 | [8] 0.002 | [9] -0.034 | [10] -0.004 | [11] 0.021 | [12] 0.023 | [13] 0.041 | [14] -0.069 | [15] -0.07 | [16] 0.001 | [17] -0.045 | [18] 0.004 | [19] 0.031 | [20] 0.019

SIPA1 (UniProt Q96FS4)
inactive: [1] 0.005 | [2] 0.079 | [3] 0.023 | [4] -0.034 | [5] 0.008 | [6] -0.007 | [7] -0.095 | [8] 0.068 | [9] -0.002 | [10] 0.013 | [11] -0.039 | [12] 0.011 | [13] 0.022 | [14] 0.008 | [15] 0.117 | [16] 0.041 | [17] 0.105 | [18] -0.029 | [19] -0.058 | [20] 0.016

SIDT2 isoform 2 (UniProt Q8NBJ9)
inactive: [1] 0.048 | [2] 0.012 | [3] 0.032 | [4] 0.08 | [5] 0.02 | [6] -0.057 | [7] 0.013 | [8] -0.018 | [9] 0.006 | [10] -0.01 | [11] 0 | [12] 0.058 | [13] 0.046 | [14] -0.082 | [15] -0.008 | [16] 0.027 | [17] -0.059 | [18] -0.303 | [19] -0.019 | [20] -0.234

SLC20A1 (UniProt Q8WUM9)
inactive: [1] 0.099 | [2] -0.004 | [3] 0.009 | [5] -0.028 | [6] -0.061 | [7] 0.153 | [8] -0.013 | [9] 0.063 | [10] -0.006 | [11] 0.002 | [12] 0.054 | [13] -0.012 | [14] -0.155 | [15] 0.016 | [16] -0.039 | [17] -0.057 | [18] -0.026 | [19] 0.036 | [20] 0.05
active: [4] 0.416

SF3B2 (UniProt Q13435)
inactive: [1] 0.014 | [2] 0.007 | [3] -0.015 | [4] -0.003 | [5] 0.007 | [6] -0.002 | [7] -0.056 | [8] 0.019 | [9] 0.016 | [10] -0.013 | [11] -0.027 | [12] 0.001 | [13] -0.025 | [14] -0.041 | [15] 0.007 | [16] 0.009 | [17] 0.02 | [18] 0.023 | [19] 0.005 | [20] -0.008

Two successive records already listed, quoted:
SIDT2 isoform 2 (UniProt Q8NBJ9)
inactive: [1] 0.048 | [2] 0.012 | [3] 0.032 | [4] 0.08 | [5] 0.02 | [6] -0.057 | [7] 0.013 | [8] -0.018 | [9] 0.006 | [10] -0.01 | [11] 0 | [12] 0.058 | [13] 0.046 | [14] -0.082 | [15] -0.008 | [16] 0.027 | [17] -0.059 | [18] -0.303 | [19] -0.019 | [20] -0.234

SLC20A1 (UniProt Q8WUM9)
inactive: [1] 0.099 | [2] -0.004 | [3] 0.009 | [5] -0.028 | [6] -0.061 | [7] 0.153 | [8] -0.013 | [9] 0.063 | [10] -0.006 | [11] 0.002 | [12] 0.054 | [13] -0.012 | [14] -0.155 | [15] 0.016 | [16] -0.039 | [17] -0.057 | [18] -0.026 | [19] 0.036 | [20] 0.05
active: [4] 0.416

Next part

SLBP (UniProt Q14493)
inactive: [1] -0.001 | [2] 0.004 | [3] -0.009 | [4] -0.083 | [5] 0.014 | [6] 0.072 | [7] -0.006 | [8] 0.007 | [9] 0.022 | [10] 0.114 | [11] 0.055 | [12] -0.095 | [13] 0.033 | [14] -0.003 | [15] -0.191 | [16] 0.019 | [17] 0 | [18] 0.028 | [19] -0.055 | [20] -0.019
